Measurements reported in PubChem BioAssay AID1259425 (University of Nebraska Medical Center, 2018).
The whole screen tested about 14,000 reagents; shown is an unselected part. Further read-outs or replicates are left out here. Not given: the time to read-out.

Aim: 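Find knockdowns that reproduce the gene expression pattern seen when KSR1 is lost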 (primary screen)
Cells: HCT116 human colon cancer cells
Knock-down reagent: siRNA pool against human genes, 50 nM siRNA
Detection: 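After 50 nM siRNA pool, branched-DNA assay measures six marker transcripts per well, minus blank, normalised to the geometric mean of two housekeeping transcripts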
Scale: BNIP3L mRNA: higher = more BNIP3L transcript after knockdown

The opening 2 entries, ahead of the listing:
{"gene":"ELMO1 (engulfment and cell motility 1)","BNIP3L mRNA, set 1":0.111}
{"gene":"SLC27A6","BNIP3L mRNA, set 1":0.0921}

Results, from the first entry:
{"gene":"ELMO1 (engulfment and cell motility 1)","BNIP3L mRNA, set 1":0.111}
{"gene":"SLC27A6","BNIP3L mRNA, set 1":0.0921}
{"gene":"H2BC11 (H2B clustered histone 11)","BNIP3L mRNA, set 1":0.0821}
{"gene":"STX17 (syntaxin 17)","BNIP3L mRNA, set 1":0.0876}
{"gene":"AGR2","BNIP3L mRNA, set 1":0.0632}
{"gene":"PTPRU (protein tyrosine phosphatase receptor type U)","BNIP3L mRNA, set 1":0.0585}
{"gene":"MRPL16 (mitochondrial ribosomal protein L16)","BNIP3L mRNA, set 1":0.0802}
{"gene":"MAP3K19 (mitogen-activated protein kinase kinase kinase 19)","BNIP3L mRNA, set 1":0.164}
{"gene":"UBR2 (ubiquitin protein ligase E3 component n-recognin 2)","BNIP3L mRNA, set 1":0.0847}
{"gene":"DKC1 (dyskerin pseudouridine synthase 1)","BNIP3L mRNA, set 1":0.0547}
{"gene":"GPSM3 (G protein signaling modulator 3)","BNIP3L mRNA, set 1":0.143}
{"gene":"NSD2 (nuclear receptor binding SET domain protein 2)","BNIP3L mRNA, set 1":0.0483}
{"gene":"EGLN1 (egl-9 family hypoxia inducible factor 1)","BNIP3L mRNA, set 1":0.266}
{"gene":"SEPTIN3 (septin 3)","BNIP3L mRNA, set 1":0.14}
{"gene":"OTUD7B (OTU deubiquitinase 7B)","BNIP3L mRNA, set 1":0.148}
{"gene":"LARP7 (La ribonucleoprotein 7, transcriptional regulator)","BNIP3L mRNA, set 1":0.31}
{"gene":"GATD3 (glutamine amidotransferase class 1 domain containing 3)","BNIP3L mRNA, set 1":0.119}
{"gene":"MYH4 (myosin heavy chain 4)","BNIP3L mRNA, set 1":0.135}
{"gene":"PSMD1 (proteasome 26S subunit, non-ATPase 1)","BNIP3L mRNA, set 1":0.515}
